These are literature values, as cited in patent US20170023547A1, “CHEMICAL THREAT ASSESSMENT BY RAPID MOLECULAR PHENOTYPING” (Vanderbilt University, priority 2015, published 2017).

For this data set, the system named is A549 cells. The settings on record: Yang et al., PloS One 8, e65309 (2013); cited from earlier work.

For the molecule `N.N.[Cl][Pt][Cl]` [cisplatin], the half-maximal inhibitory concentration (IC50) is 18 to 64 µM.
